Source: US9180094B2, “High porosity materials, scaffolds, and method of making” (The Texas A&M University System, priority 2011, dated 2015)

assay: PFDMA HIPE formation with surfactants; format: physicochemical; details: surfactant, DI water (2, 0.4, 8 g) vortexed 5 minutes

Row | Molecule | HIPE Formed
1 | CCCCCCCC/C=C\CCCCCCCC(=O)OCCOCC(OCCO)C1OCC(OCCO)C1OCCO (stereo not drawn) [Tween 80] | no
2 | PEG 600 Dilaurate | no
3 | Span 85 | no
4 | polyglycerol polyricinoleate [PGPR 4125] | yes
5 | sorbitan monooleate [Span 80] | did not stabilize and no

same assay, conditions: surfactant, DI water (2, 0.4, 8 g) vortexed 5 minutes, listed as PGPR

Row | Molecule | HIPE Formed
6 | polyglycerol polyricinoleate [PGPR 4125] | form stable HIPE

assay: Tack-free time studies of polyHIPE emulsions with different initiators; format: physicochemical; details: emulsions prepared with 5 wt. % initiator; preliminary tack-free time studies

Row | Molecule | time to cure of polyHIPE emulsion
7 | CC(C)(C#N)N=NC(C)(C)C#N [AIBN, azobis-isobutyronitrile] | about 1.5 hours
8 | O=C(OOC(=O)c1ccccc1)c1ccccc1 [BPO, benzoyl peroxide] | about 1.5 hours
9 | N.N.O=S(=O)(O)OOS(=O)(=O)O [ammonium persulfate] | 7 to 12 h
